Source: paper PMC12948197
No constants are given. Whether binding was seen depends on the method and setting. In cells and extracts the contact can be indirect. Some binding calls cover weakened binding; strength is not graded here.

Protein sequences, listed by entry. Tags and fused reporters are not part of them. Residues count along the entry.
UniProt P30101, residues 25-505: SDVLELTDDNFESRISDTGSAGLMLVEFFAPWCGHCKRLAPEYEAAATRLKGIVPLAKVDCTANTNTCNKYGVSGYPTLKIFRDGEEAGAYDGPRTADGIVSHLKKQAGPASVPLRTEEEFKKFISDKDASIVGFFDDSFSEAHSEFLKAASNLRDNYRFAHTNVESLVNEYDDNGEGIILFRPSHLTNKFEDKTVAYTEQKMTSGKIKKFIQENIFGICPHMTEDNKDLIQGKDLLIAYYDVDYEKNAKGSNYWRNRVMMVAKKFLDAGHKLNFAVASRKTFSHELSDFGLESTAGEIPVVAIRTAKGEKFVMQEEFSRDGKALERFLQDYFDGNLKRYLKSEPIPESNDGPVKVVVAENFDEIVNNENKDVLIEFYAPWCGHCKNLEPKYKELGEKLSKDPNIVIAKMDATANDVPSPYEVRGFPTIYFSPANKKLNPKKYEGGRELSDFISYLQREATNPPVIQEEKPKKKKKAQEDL
UniProt P40763: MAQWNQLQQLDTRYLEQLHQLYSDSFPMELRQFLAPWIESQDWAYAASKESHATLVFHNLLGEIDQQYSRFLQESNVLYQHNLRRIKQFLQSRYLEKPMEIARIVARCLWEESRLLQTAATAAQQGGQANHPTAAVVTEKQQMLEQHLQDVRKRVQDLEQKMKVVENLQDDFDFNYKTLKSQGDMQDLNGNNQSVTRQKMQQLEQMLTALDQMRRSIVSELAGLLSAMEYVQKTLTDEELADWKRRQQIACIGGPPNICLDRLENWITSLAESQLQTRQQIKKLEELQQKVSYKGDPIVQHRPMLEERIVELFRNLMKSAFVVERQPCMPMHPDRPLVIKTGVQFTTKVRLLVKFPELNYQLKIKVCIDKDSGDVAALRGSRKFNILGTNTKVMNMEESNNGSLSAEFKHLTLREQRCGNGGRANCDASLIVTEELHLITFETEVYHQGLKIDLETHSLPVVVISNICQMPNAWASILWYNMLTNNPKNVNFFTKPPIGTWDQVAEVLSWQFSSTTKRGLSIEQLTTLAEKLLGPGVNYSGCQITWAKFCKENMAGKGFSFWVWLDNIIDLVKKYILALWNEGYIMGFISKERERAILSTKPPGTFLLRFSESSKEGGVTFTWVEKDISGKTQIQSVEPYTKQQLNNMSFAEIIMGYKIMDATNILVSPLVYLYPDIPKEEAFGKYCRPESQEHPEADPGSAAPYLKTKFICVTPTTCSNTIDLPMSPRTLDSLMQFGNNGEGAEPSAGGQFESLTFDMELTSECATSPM
UniProt Q96PU5, residues 640-974: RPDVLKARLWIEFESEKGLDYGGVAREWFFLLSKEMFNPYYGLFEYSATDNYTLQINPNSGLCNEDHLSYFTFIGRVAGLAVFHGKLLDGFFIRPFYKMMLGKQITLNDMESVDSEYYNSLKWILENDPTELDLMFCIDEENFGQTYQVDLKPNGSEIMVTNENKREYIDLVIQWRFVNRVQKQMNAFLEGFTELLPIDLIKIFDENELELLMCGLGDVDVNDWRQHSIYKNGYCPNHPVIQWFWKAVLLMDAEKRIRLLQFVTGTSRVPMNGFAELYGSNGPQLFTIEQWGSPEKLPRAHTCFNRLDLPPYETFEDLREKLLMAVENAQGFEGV

Experiments:
[1] = target: PDIA3 expressed from a plasmid in 293T cells (UniProt P30101); experiment: co-IP; 293T cells transfected with the indicated plasmids, lysed in RIPA buffer with benzonase nuclease; immunoprecipitation of Flag-tagged proteins, washed with IP2 buffer, eluted with 3x Flag peptide, immunoblot
[2] = target: STAT3 (signal transducer and activator of transcription 3) (human (endogenous in LN229)) (UniProt P40763); experiment: proximity ligation; fixed and permeabilised LN229 cells, primary antibodies against the two endogenous proteins, MINUS and PLUS PLA probes, confocal microscopy; siRNA-depleted cells as controls

Row | Substance | binding [1] | binding [2]
1 | HECT domain of NEDD4L (truncated NEDD4L) (from UniProt Q96PU5 640-974) (domain or fragment) | binds | 
2 | protein disulfide isomerase A3 (PDIA3) (from UniProt P30101 25-505) |  | binds
